Test systems include OR5T2 clone 1313; OR5T2 clone 1428; OR5T3 clone 1343; OR5V1 clone 1070; OR6A2 clone 1489; OR6B1 R143C clone 1181; OR6B2 R122C clone 1444; OR6B3 R261W clone 1445; OR6C2 clone 1413; OR6C3 clone 1424; OR6C4 I37V clone 1412; OR6C6 clone 1426; OR6C65 clone 1459; OR6C68 A45T clone 1451; OR6C70 clone 1427; OR6C74 clone 1441; OR6C75 clone 1519; OR6C76 clone 1414; OR6F1 clone 1039.
Holding throughout (test): odorant receptor activation (CRE luciferase / Renilla) (fold of no-odor wells); higher = more activation
Holding throughout (conditions): 100 µM

The test system of assay [1] is OR6C1 V74I/C130Y/L161F/H165D/V246I/R291K clone 1442.

Our source for the odorant receptor activation values is the odorant receptor screen of Mainland et al. (2015).

Structures are written as SMILES. Several values for one entry are separate records, joined by “and”; a condition that tells them apart may be missing. Equal values may be shown once. The list shows a part of the results. Each value is one well over the wells without odorant, computed here; the data are noisy.

Regarding `c1ccc(Oc2ccccc2)cc1` [diphenyl ether], the odorant receptor activation in the assay on OR5T2 clone 1313 amounted to 0.988; in the assay on OR5T2 clone 1428, 1.24; in the assay with OR5T3 clone 1343, 1.01; in the assay with OR5V1 clone 1070, 0.987; in the assay on OR6A2 clone 1489, 1.06; with OR6B1 R143C clone 1181 it was 1.03. Further, the odorant receptor activation in the assay with OR6B2 R122C clone 1444 worked out at 1.07; with OR6B3 R261W clone 1445, 1.2; in assay [1], 1.05; in the assay on OR6C2 clone 1413, 1.08; in the assay on OR6C3 clone 1424, 0.87; with OR6C4 I37V clone 1412, 0.972. In addition, the odorant receptor activation stood at 1.09 in the assay with OR6C6 clone 1426; 1.07 in the assay with OR6C65 clone 1459; 0.88 in the assay on OR6C68 A45T clone 1451; 0.972 in the assay with OR6C70 clone 1427; 1.03 with OR6C74 clone 1441; 1.1 in the assay on OR6C75 clone 1519. In addition, the values for the odorant receptor activation with OR6C76 clone 1414 and in the assay with OR6F1 clone 1039 were 0.802 and 0.985, respectively.
For `CCCCCCCC=O` [octyl aldehyde], the odorant receptor activation in the assay with OR5T2 clone 1313 was 1.3; in the assay with OR5T2 clone 1428, 0.749; with OR5T3 clone 1343 it was 0.951; in the assay with OR5V1 clone 1070, 1.12; with OR6A2 clone 1489, 1.06; with OR6B1 R143C clone 1181, 0.827. In addition, the odorant receptor activation in the assay with OR6B2 R122C clone 1444 came to 0.717; with OR6B3 R261W clone 1445, 0.616; in assay [1], 1.05; with OR6C2 clone 1413 it was 0.744; with OR6C3 clone 1424, 0.662; in the assay with OR6C4 I37V clone 1412 it was 1.06. Besides, the odorant receptor activation in the assay on OR6C6 clone 1426 stood at 1.13; with OR6C65 clone 1459, 0.765; in the assay with OR6C68 A45T clone 1451 it was 0.989; with OR6C70 clone 1427, 0.735; with OR6C74 clone 1441 it was 0.701; in the assay with OR6C75 clone 1519 it was 0.835. For the same compound, the odorant receptor activation in the assay on OR6C76 clone 1414 stood at 0.694; in the assay with OR6F1 clone 1039, 0.985.
`CC(C)CCC(=O)O` [4-methylvaleric acid]: the odorant receptor activation is 1.05 in the assay with OR5T2 clone 1313; 0.962 in the assay with OR5T2 clone 1428; 1.06 in the assay with OR5T3 clone 1343; 1.29 in the assay on OR5V1 clone 1070; 1.11 in the assay on OR6A2 clone 1489; 0.976 with OR6B1 R143C clone 1181. Besides, the odorant receptor activation in the assay with OR6B2 R122C clone 1444 was 1.22; with OR6B3 R261W clone 1445, 0.812; in assay [1], 1.37; in the assay on OR6C2 clone 1413, 1.48; in the assay on OR6C3 clone 1424, 0.632; in the assay with OR6C4 I37V clone 1412, 0.906. For the same compound, the odorant receptor activation with OR6C6 clone 1426 was 1.23; in the assay on OR6C65 clone 1459, 0.883; in the assay on OR6C68 A45T clone 1451 it was 0.664; in the assay with OR6C70 clone 1427 it was 0.966; with OR6C74 clone 1441, 1.59; with OR6C75 clone 1519 it was 0.849. Further, the figures for the odorant receptor activation with OR6C76 clone 1414 and with OR6F1 clone 1039 were 1.06 and 1.6, respectively.
In the case of `CC(=O)OC1CC2CCC1(C)C2(C)C` (stereo not given) [isobornyl acetate], the odorant receptor activation was 1.25 and 0.722 in the assay on OR5T2 clone 1313; 0.959 in the assay with OR5T2 clone 1428; 1.12 and 0.852 in the assay with OR5T3 clone 1343; 1.09 in the assay with OR5V1 clone 1070; 0.958 and 1.16 in the assay with OR6A2 clone 1489; 0.699 in the assay with OR6B1 R143C clone 1181. In addition, the odorant receptor activation in the assay with OR6B2 R122C clone 1444 came out at 0.771; in the assay on OR6B3 R261W clone 1445, 1.02; in assay [1], 0.981; in the assay with OR6C2 clone 1413 it was 0.771; in the assay on OR6C3 clone 1424, 0.761; in the assay with OR6C4 I37V clone 1412 it was 0.764. In addition, the odorant receptor activation in the assay with OR6C6 clone 1426 was 0.913; in the assay with OR6C65 clone 1459 it was 0.691 and 1.28; with OR6C68 A45T clone 1451, 1.03; in the assay with OR6C70 clone 1427, 0.861; in the assay on OR6C74 clone 1441 it was 0.815; in the assay on OR6C75 clone 1519 it was 0.976 and 1.06. Also, the odorant receptor activation in the assay with OR6C76 clone 1414 was 0.783; in the assay with OR6F1 clone 1039, 1.84.
Consider `CCCC(=O)O` [butyric acid], for which the odorant receptor activation in the assay on OR5T2 clone 1313 was found to be 1.05; in the assay with OR5T2 clone 1428 it was 0.216; with OR5T3 clone 1343 it was 0.856; in the assay with OR5V1 clone 1070 it was 1.31; with OR6A2 clone 1489 it was 1.03; with OR6B1 R143C clone 1181 it was 0.811. Further, the odorant receptor activation stood at 0.292 in the assay on OR6B2 R122C clone 1444; 0.318 with OR6B3 R261W clone 1445; 0.163 in assay [1]; 0.216 in the assay with OR6C2 clone 1413; 0.163 in the assay with OR6C3 clone 1424; 0.219 in the assay on OR6C4 I37V clone 1412. Further, the odorant receptor activation in the assay with OR6C6 clone 1426 stood at 0.181; in the assay with OR6C65 clone 1459 it was 1.67; with OR6C68 A45T clone 1451 it was 1.13; in the assay with OR6C70 clone 1427, 0.234; in the assay with OR6C74 clone 1441, 0.131; in the assay on OR6C75 clone 1519 it was 1.25. Moreover, the odorant receptor activation came out at 0.16 with OR6C76 clone 1414 and 1.29 in the assay with OR6F1 clone 1039.
With `C=CC(C)(O)CCC=C(C)C` (stereo not given) [linalool], the odorant receptor activation in the assay on OR5T2 clone 1313 is 1.1; with OR5T2 clone 1428, 0.978; with OR5T3 clone 1343 it was 0.794; in the assay on OR5V1 clone 1070, 1.25; in the assay with OR6A2 clone 1489 it was 1.1; with OR6B1 R143C clone 1181, 0.964. Further, the odorant receptor activation in the assay on OR6B2 R122C clone 1444 is 0.739; in the assay with OR6B3 R261W clone 1445, 0.937; in [1], 1.41; in the assay with OR6C2 clone 1413 it was 0.812; with OR6C3 clone 1424, 0.761; with OR6C4 I37V clone 1412, 0.921. The odorant receptor activation was 1.14 in the assay on OR6C6 clone 1426; 1.17 in the assay with OR6C65 clone 1459; 0.948 in the assay with OR6C68 A45T clone 1451; 0.957 with OR6C70 clone 1427; 1.02 with OR6C74 clone 1441; 0.916 with OR6C75 clone 1519. In addition, the odorant receptor activation is 0.699 in the assay on OR6C76 clone 1414 and 1.09 with OR6F1 clone 1039.
On to `CC(=O)OCC=C(C)CCC=C(C)C` [geranyl acetate], for which the odorant receptor activation in the assay on OR5T2 clone 1313 is 1.16 and 1.1; in the assay on OR5T2 clone 1428 it was 1.06; in the assay with OR5T3 clone 1343, 1.55 and 1.37; in the assay on OR5V1 clone 1070, 0.902; in the assay on OR6A2 clone 1489 it was 1.26 and 1.59; with OR6B1 R143C clone 1181 it was 0.922. The odorant receptor activation in the assay on OR6B2 R122C clone 1444 was 1.04; with OR6B3 R261W clone 1445 it was 1.37; in assay [1] it was 1.27; in the assay on OR6C2 clone 1413 it was 1.11; in the assay with OR6C3 clone 1424, 1.27; with OR6C4 I37V clone 1412, 1.1. In addition, the odorant receptor activation in the assay with OR6C6 clone 1426 is 1.45; in the assay on OR6C65 clone 1459 it was 0.927 and 1.48; with OR6C68 A45T clone 1451 it was 1.61; with OR6C70 clone 1427 it was 0.906; in the assay on OR6C74 clone 1441, 0.96; in the assay with OR6C75 clone 1519 it was 1.06 and 0.82. The results for the odorant receptor activation in the assay on OR6C76 clone 1414 and in the assay on OR6F1 clone 1039 were 1.07 and 2.11, respectively.
